This is one part of the list.
Columns and labels:
Experiment in all cases: log2 fold change, soluble protein after heating vs DMSO (PISA); higher = thermal stabilisation; K562 cells, 10 uM, 30 min; active = over 0.2 and 3.5 SD of the protein, either way, in both replicates (recomputed)
[1] = compound: COC1=CC=C(C=C1)CN2C=CC3=C2C=C(C=C3)C(=O)NO
How it was run: (§1)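 For each measurement, 10 μM compound was applied for 30 min to K562 cells at 2×10^6 cells/mL. Aliquots were heated for 3 min across 48°C-58°C, pooled, and extracted in PBS with 0.5% NP-40 at 4°C; the supernatant after 21,000xg for 90 min was soluble protein. This was quantified by TMTpro 16plex LC-MS/MS with channel sums equalised, and thermal stability was reported relative to control samples from duplicates, on a log2 fold-change scale.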

Amino acid sequences for entries named in this document (tags omitted). A change or cut given only in a name is not applied to a line headed by its entry.
UniProt P08174: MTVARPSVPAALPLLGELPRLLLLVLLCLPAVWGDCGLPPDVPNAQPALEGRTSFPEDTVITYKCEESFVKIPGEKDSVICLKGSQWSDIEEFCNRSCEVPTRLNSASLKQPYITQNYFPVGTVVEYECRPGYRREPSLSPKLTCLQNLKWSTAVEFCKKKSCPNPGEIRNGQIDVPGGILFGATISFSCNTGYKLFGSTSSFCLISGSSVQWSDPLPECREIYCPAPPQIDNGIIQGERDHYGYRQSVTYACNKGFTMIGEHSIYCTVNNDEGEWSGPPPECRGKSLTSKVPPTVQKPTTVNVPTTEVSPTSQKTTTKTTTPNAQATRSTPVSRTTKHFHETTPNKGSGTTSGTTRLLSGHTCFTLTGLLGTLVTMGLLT
UniProt O60563, whole entry, looked up: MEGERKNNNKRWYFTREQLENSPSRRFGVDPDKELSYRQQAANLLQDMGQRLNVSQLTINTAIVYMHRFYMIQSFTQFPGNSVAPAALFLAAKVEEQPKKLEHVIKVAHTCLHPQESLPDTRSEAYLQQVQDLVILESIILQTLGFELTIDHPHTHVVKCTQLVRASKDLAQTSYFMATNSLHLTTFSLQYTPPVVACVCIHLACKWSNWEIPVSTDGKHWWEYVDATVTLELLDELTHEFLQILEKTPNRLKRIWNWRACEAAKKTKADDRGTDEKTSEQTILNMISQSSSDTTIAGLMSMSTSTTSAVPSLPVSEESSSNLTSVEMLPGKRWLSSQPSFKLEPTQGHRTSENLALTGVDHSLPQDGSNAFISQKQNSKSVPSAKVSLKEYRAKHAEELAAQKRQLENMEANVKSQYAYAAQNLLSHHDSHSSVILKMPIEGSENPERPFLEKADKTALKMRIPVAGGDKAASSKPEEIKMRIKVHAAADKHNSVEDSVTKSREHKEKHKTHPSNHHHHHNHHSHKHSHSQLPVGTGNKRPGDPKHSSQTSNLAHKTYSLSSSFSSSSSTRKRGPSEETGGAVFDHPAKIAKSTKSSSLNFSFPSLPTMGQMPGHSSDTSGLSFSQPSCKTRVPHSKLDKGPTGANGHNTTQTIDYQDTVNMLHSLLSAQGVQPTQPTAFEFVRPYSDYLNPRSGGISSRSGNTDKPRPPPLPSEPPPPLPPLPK
UniProt P45973, whole entry, looked up: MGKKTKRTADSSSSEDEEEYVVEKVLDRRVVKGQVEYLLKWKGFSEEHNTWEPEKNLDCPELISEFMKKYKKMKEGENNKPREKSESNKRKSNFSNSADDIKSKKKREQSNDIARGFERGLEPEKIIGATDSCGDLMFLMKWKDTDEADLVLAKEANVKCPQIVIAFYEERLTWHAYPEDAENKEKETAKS
UniProt Q7L3B6: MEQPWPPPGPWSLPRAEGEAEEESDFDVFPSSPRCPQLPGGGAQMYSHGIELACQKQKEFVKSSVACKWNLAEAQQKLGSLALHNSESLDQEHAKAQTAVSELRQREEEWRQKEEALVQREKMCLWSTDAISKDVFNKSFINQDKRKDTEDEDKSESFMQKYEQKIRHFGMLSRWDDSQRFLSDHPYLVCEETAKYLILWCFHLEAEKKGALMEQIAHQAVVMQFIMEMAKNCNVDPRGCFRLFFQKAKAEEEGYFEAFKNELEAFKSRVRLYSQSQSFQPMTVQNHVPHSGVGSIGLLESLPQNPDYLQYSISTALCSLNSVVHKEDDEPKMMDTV
UniProt Q5M9N0: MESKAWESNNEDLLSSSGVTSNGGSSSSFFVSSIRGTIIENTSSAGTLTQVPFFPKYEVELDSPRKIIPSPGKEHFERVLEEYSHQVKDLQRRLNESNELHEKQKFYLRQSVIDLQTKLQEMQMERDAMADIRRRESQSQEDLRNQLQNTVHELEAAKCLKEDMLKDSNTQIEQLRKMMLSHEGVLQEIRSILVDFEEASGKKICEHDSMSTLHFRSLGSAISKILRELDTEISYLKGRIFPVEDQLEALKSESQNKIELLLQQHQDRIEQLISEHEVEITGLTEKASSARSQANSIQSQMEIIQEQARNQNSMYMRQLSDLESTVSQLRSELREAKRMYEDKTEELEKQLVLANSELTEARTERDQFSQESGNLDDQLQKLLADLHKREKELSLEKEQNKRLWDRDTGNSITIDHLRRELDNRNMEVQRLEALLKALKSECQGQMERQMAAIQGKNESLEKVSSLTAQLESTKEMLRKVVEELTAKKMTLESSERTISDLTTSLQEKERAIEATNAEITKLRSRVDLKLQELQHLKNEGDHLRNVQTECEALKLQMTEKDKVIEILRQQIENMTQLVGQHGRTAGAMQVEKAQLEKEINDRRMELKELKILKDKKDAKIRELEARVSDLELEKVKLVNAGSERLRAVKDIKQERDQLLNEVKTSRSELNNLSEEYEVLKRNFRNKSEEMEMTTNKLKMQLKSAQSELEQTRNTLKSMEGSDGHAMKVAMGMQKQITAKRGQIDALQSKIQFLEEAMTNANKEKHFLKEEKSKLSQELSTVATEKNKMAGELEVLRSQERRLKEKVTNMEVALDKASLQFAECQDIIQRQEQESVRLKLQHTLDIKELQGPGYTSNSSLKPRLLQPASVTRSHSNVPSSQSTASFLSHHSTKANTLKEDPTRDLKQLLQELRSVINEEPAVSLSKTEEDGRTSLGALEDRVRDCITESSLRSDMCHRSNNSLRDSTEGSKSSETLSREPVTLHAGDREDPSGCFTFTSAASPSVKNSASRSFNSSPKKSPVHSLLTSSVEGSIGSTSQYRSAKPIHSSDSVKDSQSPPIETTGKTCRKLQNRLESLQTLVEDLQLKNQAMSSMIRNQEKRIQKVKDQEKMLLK
UniProt P14635, whole entry, looked up: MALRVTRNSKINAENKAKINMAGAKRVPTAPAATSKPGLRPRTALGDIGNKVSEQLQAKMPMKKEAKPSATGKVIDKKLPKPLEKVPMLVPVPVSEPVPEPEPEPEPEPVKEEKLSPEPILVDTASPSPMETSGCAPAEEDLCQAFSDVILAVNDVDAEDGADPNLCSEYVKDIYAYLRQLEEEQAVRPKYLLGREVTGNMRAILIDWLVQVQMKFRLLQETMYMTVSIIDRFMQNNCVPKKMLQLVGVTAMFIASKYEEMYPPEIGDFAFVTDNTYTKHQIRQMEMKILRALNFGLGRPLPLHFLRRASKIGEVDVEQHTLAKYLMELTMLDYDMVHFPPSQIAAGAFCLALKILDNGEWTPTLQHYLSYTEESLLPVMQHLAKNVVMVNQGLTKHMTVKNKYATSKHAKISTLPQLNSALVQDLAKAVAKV
UniProt P40227, whole entry, looked up: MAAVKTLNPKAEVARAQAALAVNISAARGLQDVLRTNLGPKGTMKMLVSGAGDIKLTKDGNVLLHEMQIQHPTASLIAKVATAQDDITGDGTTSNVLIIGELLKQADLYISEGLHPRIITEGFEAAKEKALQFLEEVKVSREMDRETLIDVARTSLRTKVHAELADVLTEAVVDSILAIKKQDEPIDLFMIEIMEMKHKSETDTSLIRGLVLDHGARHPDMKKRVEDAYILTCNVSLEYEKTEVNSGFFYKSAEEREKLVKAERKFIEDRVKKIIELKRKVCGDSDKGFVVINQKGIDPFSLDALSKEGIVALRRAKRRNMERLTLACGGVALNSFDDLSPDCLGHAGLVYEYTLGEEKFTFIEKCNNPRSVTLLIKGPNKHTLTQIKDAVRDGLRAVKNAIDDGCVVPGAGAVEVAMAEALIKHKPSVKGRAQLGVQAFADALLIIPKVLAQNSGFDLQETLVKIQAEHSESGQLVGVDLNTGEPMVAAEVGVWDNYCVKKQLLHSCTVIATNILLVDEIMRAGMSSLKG
UniProt P49427: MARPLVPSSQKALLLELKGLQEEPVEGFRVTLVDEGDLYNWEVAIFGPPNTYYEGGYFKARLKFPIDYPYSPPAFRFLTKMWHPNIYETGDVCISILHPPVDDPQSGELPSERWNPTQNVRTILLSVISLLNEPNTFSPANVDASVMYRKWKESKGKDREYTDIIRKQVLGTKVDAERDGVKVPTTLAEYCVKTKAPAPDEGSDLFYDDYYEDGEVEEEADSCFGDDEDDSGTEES
UniProt P42574: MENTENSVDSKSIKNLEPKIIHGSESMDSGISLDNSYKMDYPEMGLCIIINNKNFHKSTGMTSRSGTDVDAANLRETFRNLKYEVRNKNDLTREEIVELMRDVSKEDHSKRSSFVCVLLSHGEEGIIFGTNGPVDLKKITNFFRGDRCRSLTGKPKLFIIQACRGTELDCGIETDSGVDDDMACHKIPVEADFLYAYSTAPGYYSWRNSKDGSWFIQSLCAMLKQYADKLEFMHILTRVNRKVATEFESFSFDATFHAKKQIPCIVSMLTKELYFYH
UniProt Q3V6T2: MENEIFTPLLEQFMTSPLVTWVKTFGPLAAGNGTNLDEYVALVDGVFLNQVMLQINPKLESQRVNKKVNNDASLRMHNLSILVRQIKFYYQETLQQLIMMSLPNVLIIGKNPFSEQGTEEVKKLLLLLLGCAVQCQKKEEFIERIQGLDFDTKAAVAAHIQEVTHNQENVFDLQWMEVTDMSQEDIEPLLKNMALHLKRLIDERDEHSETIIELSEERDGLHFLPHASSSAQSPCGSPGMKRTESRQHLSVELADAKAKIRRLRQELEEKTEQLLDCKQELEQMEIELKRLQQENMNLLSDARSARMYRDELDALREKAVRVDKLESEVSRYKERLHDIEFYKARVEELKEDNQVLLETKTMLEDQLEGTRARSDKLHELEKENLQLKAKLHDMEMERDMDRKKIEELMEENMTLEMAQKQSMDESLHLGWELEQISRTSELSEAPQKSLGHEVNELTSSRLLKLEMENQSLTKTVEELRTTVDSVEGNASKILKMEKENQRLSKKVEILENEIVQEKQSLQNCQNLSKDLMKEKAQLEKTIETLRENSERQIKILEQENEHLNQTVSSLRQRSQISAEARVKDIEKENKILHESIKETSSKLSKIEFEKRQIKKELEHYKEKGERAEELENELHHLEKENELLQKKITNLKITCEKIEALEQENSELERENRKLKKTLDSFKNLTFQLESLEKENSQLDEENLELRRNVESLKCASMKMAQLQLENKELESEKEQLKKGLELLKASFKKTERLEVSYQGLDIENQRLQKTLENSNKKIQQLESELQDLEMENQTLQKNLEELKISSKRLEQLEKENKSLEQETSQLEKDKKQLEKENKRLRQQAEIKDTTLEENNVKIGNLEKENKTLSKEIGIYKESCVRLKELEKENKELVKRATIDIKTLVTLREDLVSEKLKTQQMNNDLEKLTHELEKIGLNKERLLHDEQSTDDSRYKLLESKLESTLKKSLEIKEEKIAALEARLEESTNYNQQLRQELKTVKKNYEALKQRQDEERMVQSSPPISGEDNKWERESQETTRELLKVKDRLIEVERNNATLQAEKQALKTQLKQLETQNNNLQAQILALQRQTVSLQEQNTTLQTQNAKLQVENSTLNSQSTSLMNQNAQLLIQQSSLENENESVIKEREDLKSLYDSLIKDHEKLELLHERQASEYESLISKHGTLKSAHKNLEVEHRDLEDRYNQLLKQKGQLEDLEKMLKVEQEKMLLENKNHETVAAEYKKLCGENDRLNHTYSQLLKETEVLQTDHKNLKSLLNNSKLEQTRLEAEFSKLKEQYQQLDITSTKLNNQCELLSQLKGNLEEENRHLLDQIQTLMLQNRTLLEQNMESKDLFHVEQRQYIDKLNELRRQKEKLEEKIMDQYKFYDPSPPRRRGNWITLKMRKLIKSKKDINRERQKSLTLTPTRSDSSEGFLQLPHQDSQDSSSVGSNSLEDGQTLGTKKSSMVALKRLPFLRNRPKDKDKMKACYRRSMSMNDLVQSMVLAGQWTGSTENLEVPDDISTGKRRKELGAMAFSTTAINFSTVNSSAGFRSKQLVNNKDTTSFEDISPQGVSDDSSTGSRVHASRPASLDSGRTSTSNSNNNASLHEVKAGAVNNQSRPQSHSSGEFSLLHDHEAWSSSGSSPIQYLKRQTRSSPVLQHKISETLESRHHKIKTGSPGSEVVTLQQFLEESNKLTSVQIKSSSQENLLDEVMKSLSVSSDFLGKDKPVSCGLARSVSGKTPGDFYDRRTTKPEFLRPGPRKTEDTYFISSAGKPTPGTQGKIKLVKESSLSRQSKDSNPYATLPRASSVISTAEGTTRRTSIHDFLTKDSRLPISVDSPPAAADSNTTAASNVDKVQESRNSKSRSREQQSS
UniProt Q75N03: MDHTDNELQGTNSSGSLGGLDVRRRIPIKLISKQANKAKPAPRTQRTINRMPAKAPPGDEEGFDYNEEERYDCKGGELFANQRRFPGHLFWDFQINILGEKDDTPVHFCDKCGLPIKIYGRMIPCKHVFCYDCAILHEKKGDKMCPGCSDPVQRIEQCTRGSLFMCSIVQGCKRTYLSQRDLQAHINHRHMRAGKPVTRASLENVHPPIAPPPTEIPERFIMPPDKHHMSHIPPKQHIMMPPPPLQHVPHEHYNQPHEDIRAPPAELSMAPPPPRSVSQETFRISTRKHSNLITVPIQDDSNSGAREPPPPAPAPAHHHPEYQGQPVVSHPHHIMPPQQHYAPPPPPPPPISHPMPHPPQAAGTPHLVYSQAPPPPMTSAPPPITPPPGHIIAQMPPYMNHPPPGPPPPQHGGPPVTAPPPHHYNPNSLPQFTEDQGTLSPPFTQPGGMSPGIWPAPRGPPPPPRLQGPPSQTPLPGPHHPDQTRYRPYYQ

filanesib = compound: CON(C)C(=O)N1N=C(c2cc(F)ccc2F)S[C@@]1(CCCN)c1ccccc1 [filanesib]
How it was run: as §1

zotarolimus = compound: CO[C@H]1C[C@@H]2CC[C@@H](C)[C@@](O)(O2)C(=O)C(=O)N2CCCC[C@H]2C(=O)O[C@H]([C@H](C)C[C@@H]2CC[C@H](n3cnnn3)[C@H](OC)C2)CC(=O)[C@H](C)/C=C(\C)[C@@H](O)[C@@H](OC)C(=O)[C@H](C)C[C@H](C)/C=C/C=C/C=C/1C [zotarolimus]
How it was run: as §1

idasanutlin = compound: COc1cc(C(=O)O)ccc1NC(=O)[C@@H]1N[C@@H](CC(C)(C)C)[C@](C#N)(c2ccc(Cl)cc2F)[C@H]1c1cccc(Cl)c1F [idasanutlin]
How it was run: as §1

alisertib = compound: COc1cc(Nc2ncc3c(n2)-c2ccc(Cl)cc2C(c2c(F)cccc2OC)=NC3)ccc1C(=O)O [alisertib]
How it was run: as §1

[2] = compound: COc1cc2nc(-c3cc(F)ccc3O)nc(N[C@@H]3CNC[C@H]3C(C)(C)O)c2cc1OC
How it was run: as §1

gefitinib = compound: COc1cc2ncnc(Nc3ccc(F)c(Cl)c3)c2cc1OCCCN1CCOCC1 [gefitinib]
How it was run: as §1

[3] = compound: COc1cccc2cc(-c3nc([C@H]4CC[C@H](C(=O)O)CC4)n4ncnc(N)c34)[nH]c12
How it was run: as §1

lapatinib = compound: CS(=O)(=O)CCNCc1ccc(-c2ccc3ncnc(Nc4ccc(OCc5cccc(F)c5)c(Cl)c4)c3c2)o1 [lapatinib]
How it was run: as §1

pictilisib = compound: CS(=O)(=O)N1CCN(Cc2cc3nc(-c4cccc5[nH]ncc45)nc(N4CCOCC4)c3s2)CC1 [pictilisib]
How it was run: as §1

Target | log2 fold change [1] | log2 fold change (filanesib) | log2 fold change (zotarolimus) | log2 fold change (idasanutlin) | log2 fold change (alisertib) | log2 fold change [2] | log2 fold change (gefitinib) | log2 fold change [3] | log2 fold change (lapatinib) | log2 fold change (pictilisib)
CD55 isoform 7 (UniProt P08174) | inactive: -0.115 | inactive: 0.086 | inactive: 0.001 | inactive: 0.038 | inactive: -0.144 | inactive: 0.012 | inactive: 0.104 | inactive: -0.136 | inactive: 0.031 | inactive: 0.005
CCNT1 (UniProt O60563) | inactive: -0.05 | inactive: 0.13 | inactive: 0.044 | inactive: 0.109 | inactive: -0.093 | active: -0.371 | inactive: 0.021 | inactive: -0.158 | inactive: 0.098 | inactive: -0.049
CDC42 (UniProt P60953) | inactive: 0.282 | inactive: -0.001 | inactive: 0.018 | inactive: 0.033 | inactive: -0.083 | inactive: -0.033 | inactive: -0.001 | inactive: -0.112 | inactive: -0.018 | inactive: 0.083
CBWD1 (UniProt Q9BRT8) | inactive: 0.027 | inactive: -0.048 | inactive: 0.019 | inactive: 0.081 | inactive: -0.017 | inactive: 0.062 | inactive: -0.071 | inactive: -0.001 | inactive: 0.029 | inactive: -0.083
CCS (UniProt O14618) | inactive: -0.058 | inactive: -0.032 | inactive: -0.007 | inactive: 0.038 | inactive: -0.018 | inactive: -0.025 | inactive: 0.002 | inactive: -0.018 | inactive: -0.008 | inactive: -0.037
CD99 (UniProt P14209) | inactive: -0.017 | inactive: 0.16 | inactive: -0.034 | inactive: 0.15 | inactive: -0.075 | inactive: 0.107 | inactive: 0.001 | inactive: 0.03 | inactive: -0.023 | inactive: 0.003
CBX5 (UniProt P45973) | inactive: 0.119 | inactive: -0.046 | inactive: 0.029 | inactive: -0.014 | inactive: -0.062 | inactive: 0.003 | inactive: 0.024 | inactive: 0.022 | inactive: 0.019 | inactive: 0.106
CDC37L1 (UniProt Q7L3B6) | inactive: -0.027 | inactive: 0.047 | inactive: -0.057 | inactive: -0.031 | inactive: -0.009 | inactive: -0.106 | inactive: 0.029 | inactive: -0.037 | inactive: 0.034 | inactive: -0.051
CCDC158 (UniProt Q5M9N0) | inactive: 0.029 | inactive: 0.153 | inactive: 0.067 | inactive: 0.117 | inactive: -0.008 | inactive: -0.057 | inactive: -0.097 | inactive: -0.051 | inactive: 0.037 | inactive: -0.16
CCNB2 (UniProt O95067) | inactive: 0.038 | inactive: -0.007 | inactive: 0.033 | inactive: -0.019 | inactive: 0.001 | inactive: -0.074 | inactive: 0.004 | inactive: -0.019 | inactive: 0.008 | inactive: 0.115
CCDC47 (UniProt Q96A33) | inactive: 0.168 | inactive: 0.005 | inactive: -0.005 | inactive: -0.058 | inactive: -0.031 | inactive: 0.008 | inactive: -0.034 | inactive: 0.014 | inactive: -0.081 | inactive: 0.018
CCZ1 (UniProt P86791) | inactive: 0.052 | inactive: -0.062 | inactive: 0.044 | inactive: -0.015 | inactive: -0.072 | inactive: -0.036 | inactive: 0.013 | inactive: 0.018 | inactive: -0.005 | inactive: -0.047
CCNB1 (UniProt P14635) | inactive: -0.006 | inactive: -0.035 | inactive: -0.009 | inactive: 0.003 | inactive: -0.061 | inactive: 0.015 | inactive: -0.009 | inactive: 0.017 | inactive: -0.044 | inactive: 0.002
CD3EAP isoform 2 (UniProt O15446) | inactive: -0.001 | inactive: 0.19 | inactive: -0.023 | inactive: 0.095 | inactive: -0.046 | inactive: -0.078 | inactive: -0.02 | inactive: 0.008 | inactive: 0.01 | inactive: 0.037
CCT6A (UniProt P40227) | inactive: 0.004 | inactive: -0.025 | inactive: 0.02 | inactive: -0.005 | inactive: -0.031 | inactive: -0.006 | inactive: -0.013 | inactive: 0.034 | inactive: -0.002 | inactive: -0.033
CDC34 (UniProt P49427) | inactive: -0.268 | inactive: -0.004 | inactive: -0.033 | inactive: -0.046 | inactive: 0.042 | inactive: 0.177 | inactive: 0.041 | inactive: -0.027 | inactive: -0.081 | inactive: 0.033
CCT4 (UniProt P50991) | inactive: 0.037 | inactive: -0.061 | inactive: 0 | inactive: -0.035 | inactive: -0.073 | inactive: -0.059 | inactive: -0.01 | inactive: -0.008 | inactive: 0.117 | inactive: -0.049
CASP3 (UniProt P42574) | inactive: 0.004 | inactive: -0.002 | inactive: 0.029 | inactive: 0.072 | inactive: -0.103 | inactive: 0.025 | inactive: 0.002 | inactive: -0.018 | inactive: 0.017 | inactive: 0.006
CD47 (UniProt Q08722) | inactive: -0.124 | inactive: 0.005 | inactive: -0.044 | inactive: -0.029 | inactive: -0.078 | inactive: 0.058 | inactive: 0.015 | inactive: 0.057 | inactive: -0.053 | inactive: 0.058
CCDC88A (UniProt Q3V6T2) | inactive: 0.057 | inactive: 0.167 | inactive: -0.107 | inactive: 0.057 | inactive: -0.028 | inactive: -0.038 | inactive: -0.044 | inactive: 0.068 | inactive: 0.055 | inactive: 0.067
CBLL1 (UniProt Q75N03) | inactive: -0.08 | inactive: -0.028 | inactive: -0.03 | inactive: 0.071 | – | inactive: 0.129 | inactive: -0.41 | – | inactive: 0.067 | –
CCDC43 (UniProt Q96MW1) | inactive: 0.003 | inactive: -0.028 | inactive: 0.06 | inactive: -0.007 | inactive: -0.106 | inactive: -0.025 | inactive: 0.027 | inactive: -0.001 | inactive: 0.05 | inactive: -0.036
CCDC90B (UniProt Q9GZT6) | inactive: 0.028 | inactive: 0.008 | inactive: 0.01 | inactive: -0.034 | inactive: -0.019 | inactive: -0.016 | inactive: 0.025 | inactive: 0.033 | inactive: -0.004 | inactive: 0.039
CCDC174 (UniProt Q6PII3) | inactive: -0.07 | inactive: 0.04 | inactive: -0.049 | inactive: 0.057 | inactive: -0.045 | inactive: 0.045 | inactive: 0.045 | inactive: 0.007 | inactive: -0.073 | inactive: 0.001
CASP10 isoform 4 (UniProt Q92851) | inactive: 0.012 | inactive: 0.078 | inactive: 0.062 | inactive: -0.049 | inactive: 0.009 | inactive: -0.089 | inactive: -0.036 | inactive: -0.128 | inactive: -0.047 | inactive: 0.079
CAV2 (UniProt P51636) | inactive: -0.046 | inactive: 0.131 | – | inactive: 0 | inactive: -0.083 | inactive: -0.011 | inactive: 0.137 | inactive: 0.026 | inactive: -0.018 | inactive: 0.031
CD69 (UniProt Q07108) | inactive: 0.11 | inactive: 0.13 | inactive: -0.099 | – | inactive: -0.04 | inactive: 0.155 | inactive: 0.076 | inactive: 0.061 | inactive: -0.044 | inactive: -0.057
CCT3 (UniProt P49368) | inactive: -0.008 | inactive: 0.026 | inactive: 0.009 | inactive: -0.014 | inactive: -0.078 | inactive: 0.003 | inactive: -0.02 | inactive: 0.008 | inactive: -0.043 | inactive: -0.007

A different layout for part of the listing above.
Target,log2 fold change [1],log2 fold change (filanesib),log2 fold change (zotarolimus),log2 fold change (idasanutlin),log2 fold change (alisertib),log2 fold change [2],log2 fold change (gefitinib),log2 fold change [3],log2 fold change (lapatinib),log2 fold change (pictilisib)
CCDC90B (UniProt Q9GZT6),inactive: 0.028,inactive: 0.008,inactive: 0.01,inactive: -0.034,inactive: -0.019,inactive: -0.016,inactive: 0.025,inactive: 0.033,inactive: -0.004,inactive: 0.039
CD69 (UniProt Q07108),inactive: 0.11,inactive: 0.13,inactive: -0.099,–,inactive: -0.04,inactive: 0.155,inactive: 0.076,inactive: 0.061,inactive: -0.044,inactive: -0.057

Reference: the supplement of paper PMC10849652
